Assay results as given in patent publication US20230183293A1, “METHODS OF TREATING OR PREVENTING CORONAVIRUS INFECTION” (priority 2021, published 2023).
Some entries share one result that the patent states for a list of compounds.

Tested on: SARS-CoV-2
Format: cell-based
Conditions: 25 μM, plastic, Calu-3, 24 h p.i., FIG. 6B

## C=CC[C@@H]1/C=C(\C)C[C@H](C)C[C@H](OC)[C@H]2O[C@@](O)(C(=O)C(=O)N3CCCC[C@H]3C(=O)O[C@H](/C(C)=C/[C@@H]3CC[C@@H](O)[C@H](OC)C3)[C@H](C)[C@@H](O)CC1=O)[C@H](C)C[C@@H]2OC [tacrolimus, reference compound]
  reduction in infectious progeny titers: more than 1 log
